Test results as given in PubChem BioAssay AID540256 (National Center for Advancing Translational Sciences (NCATS), 2011).
The campaign covered roughly 300,000 compounds. About 3,700 (1.2%) were called active. The inconclusive results got no clear call from the source; some entries with a clear call stand among them for comparison. Calls come from the whole dose curve; tested in HEK293 cells. Potencies of inconclusive entries are doubtful fits and often do not repeat.

Assay: qHTS for Inhibitors of binding or entry into cells for Lassa Virus; note: nearly all actives have a fitted effect of over 50% in size
Conditions: Lassa virus pseudotype entry inhibition, cell reporter; activity change, negative = inhibition: at 37.9 µM (top of the series) unless noted
% is set by controls: 0 for no effect and ±100 for the full control effect; potency is the fitted concentration of half-maximal effect.

Structure (SMILES)	Potency	activity change, negative = inhibition
COc1ccccc1/C=C/C=N/n1c(C2CCCCC2)n[nH]c1=S	inconclusive: 11.2 µM [inhibitor, partial curve, poor fit]	–
COc1ccccc1N=Nc1[nH]c2ccc(C)cc2c1O	inconclusive: 0.184 µM [inhibitor, full curve, poor fit]	–
COc1ccc(N(CC(=O)Nc2ccc(OC)c(Cl)c2)S(=O)(=O)c2c(C)noc2C)cc1	inconclusive: 32.6 µM [inhibitor, partial curve, poor fit]	–
COc1ccc(-c2csc(Nc3ccccc3)n2)cc1	inconclusive: 25.1 µM [inhibitor, partial curve, poor fit]	–
COc1ccc(OCc2nnc(NC(=O)Nc3ccccc3F)s2)cc1	inconclusive: 35.5 µM [inhibitor, partial curve, poor fit]	–
Cc1ccc(NC(=O)CN2C(=O)c3ccccc3Sc3ncccc32)c(C)c1	–	inactive: -0.835% [at 46.1 µM]
O=c1ccc(C(F)(F)F)cn1Cc1cc(=O)n2ccsc2n1	inconclusive: 35.5 µM [activator, single point]	–
Cc1noc(NS(=O)(=O)c2ccc(NC(=O)/C=C/c3ccc(C(C)C)cc3)cc2)c1C	inconclusive: 3.16 µM [activator, partial curve, poor fit]	–
COc1ccccc1NC(=O)C1=C(C)Nc2nc(SCc3ccccc3)nn2C1c1cccs1 (stereo unspecified)	inconclusive: 6.31 µM [inhibitor, full curve, poor fit]	–
CN(CCOc1ccccc1)S(=O)(=O)c1ccc2oc3ccccc3c2c1	inconclusive: 35.5 µM [inhibitor, single point]	–
Cc1noc(C)c1CSCC(=O)N(CC(C)C)c1c(N)n(Cc2ccccc2)c(=O)[nH]c1=O	inconclusive: 6.31 µM [inhibitor, single point]	–
CN(C)c1ccc(C(=O)c2ccc(N(C)C)cc2)cc1	inconclusive: 3.26 µM [inhibitor, full curve, poor fit]	–
CCOC(=O)N1CCN(Cc2cc(Cl)c3cccnc3c2O)CC1	inconclusive: 20 µM [inhibitor, single point]	–
C=CCN(C(=O)c1csnn1)C(C(=O)NCc1ccc(F)cc1)c1ccccc1F (stereo unspecified)	inconclusive: 12.6 µM [inhibitor, partial curve, poor fit]	–
CCCCc1ccc(NC(=O)c2ccc(NS(C)(=O)=O)cc2)cc1	inconclusive: 8.2 µM [inhibitor, partial curve, poor fit]	–
O=C(CN1C(=O)c2ccccc2C1=O)Nc1sc2c(c1C(=O)NCc1ccco1)CCCC2	–	inactive: 1.03%
O=C(CSc1oc(-c2ccco2)nc1S(=O)(=O)c1ccccc1)NCC1CCCO1 (stereo unspecified)	–	inactive: 22.2%
Cc1ccccc1C1=NCC(=O)N(CC(=O)N2CCCCC2)c2sc(C)c(C)c21	inconclusive: 16.4 µM [inhibitor, partial curve, poor fit]	–
O=C(c1ccco1)N1CCN(C(=S)Nc2cccc([N+](=O)[O-])c2)CC1	inconclusive: 22.4 µM [inhibitor, single point]	–
COc1cccc(N=Nc2c(N)[nH]n3c(=O)c4c(nc23)CCCC4)c1	inconclusive: 7.08 µM [inhibitor, partial curve, poor fit]	–
O=C(Nc1nnc(-c2ccc(F)cc2)o1)c1ccc(S(=O)(=O)N2CCOCC2)cc1	inconclusive: 3.98 µM [inhibitor, full curve]	–
CC(C)CN(CC(C)C)CC(O)COc1ccccc1Br (stereo unspecified)	inconclusive: 29.1 µM [inhibitor, single point]	–

Structure (SMILES)	Potency	activity change, negative = inhibition
COCCNC(=O)c1ccccc1NC(=O)c1ccc(OC)c(OC)c1	inconclusive: 29.1 µM [activator, single point]	–
Cc1ccc(N(CC(=O)NCc2ccc(OC(C)C)cc2)S(=O)(=O)N(C)C)cc1	active: 5.01 µM	–
O=C(Nc1cccc(-c2nc3ccccc3[nH]2)c1)c1cccc(NC(=O)c2ccco2)c1	inconclusive: 29.1 µM [inhibitor, single point]	–
CCOC(=O)C1=C(C)NC(C)=C(C(=O)OCC)C1c1ccc(OC)cc1	inconclusive: 3.26 µM [inhibitor, single point]	–
CCC1CCCCN1CCCNC(=O)c1ccc2c(c1)c(C)c(C)n2C (stereo unspecified)	inconclusive: 12.6 µM [activator, partial curve, poor fit]	–
CCOc1ccc(CN2C(=O)c3ccccc3Sc3ccc(C(=O)NC4CCC(C)CC4)cc32)cc1 (stereo unspecified)	–	inactive: -18.8% [at 46.1 µM]
O=C(c1ccc(Cl)c(Cl)c1)N(Cc1ccco1)c1ccc(O)cc1	inconclusive: 20 µM [inhibitor, single point]	–
OC(CCCN1CCC(O)(c2ccc(Cl)cc2)CC1)c1ccc(F)cc1 (stereo unspecified)	inconclusive: 29.1 µM [inhibitor, single point]	–
Cn1c2ccc(F)cc2c2ncn(Cc3ccco3)c(=O)c21	–	inactive: -0.858%
CC(=O)N1CCC(=NNc2nc3ccccc3[nH]2)CC1	–	inactive: 0.439% [at 46.1 µM]
Cc1cccc(Nc2nc(N)nc(-c3oc4ccccc4c3C)n2)c1	inconclusive: 12.6 µM [inhibitor, partial curve, poor fit]	–
CCCN(CCC)C(=O)C(CCC(=O)O)NC(=O)c1ccccc1 (stereo unspecified)	inconclusive: 0.146 µM [activator, full curve, poor fit]	–
O=C(c1ccc2c3c(cccc13)CC2)C1CCCN(C(=O)c2ccc(=O)[nH]c2)C1 (stereo unspecified)	inconclusive: 35.5 µM [inhibitor, single point]	–
Cc1cc(C)c(S(=O)(=O)Nc2ccc(-c3ccc(N4CCCCC4)nn3)cc2)cc1C	inconclusive: 0.891 µM [inhibitor, partial curve, poor fit]	–
C=CCn1c(O)c(C2=c3ccccc3=NC2=O)c2ccccc21	inconclusive: 35.5 µM [inhibitor, single point]	–
COc1ccccc1CCNC(=O)C1CCN(c2nc3ccccc3nc2C(F)(F)F)CC1	–	inactive: -25.1% [at 46.1 µM]
Cc1cccc(Cc2c(C)nc3c(C(=O)N4CCN(Cc5ccc6c(c5)OCO6)CC4)cnn3c2C)c1	–	inactive: -12.9%
Cc1ccccc1Nc1nc(N)nc(COC(=O)C(NC(=O)c2ccco2)C(C)C)n1 (stereo unspecified)	inconclusive: 23.1 µM [activator, partial curve]	–
O=C(Nc1nc2ccccc2s1)c1ccccc1	inconclusive: 16.4 µM [inhibitor, partial curve, poor fit]	–
COc1cc(/C=N/NC(=O)c2ccc(CSc3nc4ccccc4[nH]3)cc2)cc(OC)c1OC	inconclusive: 5.17 µM [inhibitor, partial curve, poor fit]	–
CC(C)CC(=O)NC(=S)Nc1cccc(NC(=O)c2ccccc2Cl)c1	inconclusive: 1.3 µM [inhibitor, partial curve, poor fit]	–
O=C(N/N=C/c1ccc([N+](=O)[O-])o1)c1ccccc1-n1cccc1	inconclusive: 7.08 µM [inhibitor, full curve, poor fit]	–

Structure (SMILES)	Potency	activity change, negative = inhibition
COc1cccc(/C=N/NC(=O)c2[nH]nc3c2CCc2ccccc2-3)c1O	active: 12.6 µM	–
CCNC(=S)N/N=C/c1cc(Br)cc(Br)c1OC	–	inactive: -14.4%
O=C(C1CC1)N1CCc2cc(Br)cc(S(=O)(=O)Nc3ccc(C(F)(F)F)cc3)c21	inconclusive: 3.16 µM [inhibitor, partial curve, poor fit]	–
CC1CCC(N(CCCN)Cc2ccco2)CC1C (stereo unspecified)	–	inactive: 4.58%
CS(=O)(=O)N(CC(=O)N1CCCC1)c1ccc(Cl)cc1Cl	–	inactive: 0.544%
CCCCCCCCCCCCCCCC[n+]1ccc(/C=N/O)cc1	active: 6.51 µM	–
Cc1nnc(NC(=O)c2ccc(-c3cccc(C(F)(F)F)c3)o2)s1	–	inactive: 1.06%
CCOc1ccc2c(c1)OC(c1ccc(C)cc1)(C(F)(F)F)NC2=O (stereo unspecified)	inconclusive: 1.58 µM [inhibitor, partial curve, poor fit]	–
O=C(c1ccc2c3c(cccc13)CC2)C1CCCN(Cc2cccnc2)C1 (stereo unspecified)	–	inactive: 10.1%
Cc1ccc(CSc2nc3cccnc3n2Cc2nc(-c3ccccc3F)oc2C)cc1	inconclusive: 14.1 µM [inhibitor, single point]	–
C=C(c1ccc(O)cc1)c1ccc(O)cc1	active: 1 µM	–
S=c1nc(-c2ccc(Br)cc2)oc2c1CCCC2	inconclusive: 3.55 µM [activator, partial curve, poor fit]	–
Cc1ccc(NC(=O)Nc2ccc([N+](=O)[O-])cc2)nc1	inconclusive: 5.01 µM [activator, single point]	–
N#Cc1c(NC(=O)c2ccc(F)cc2)sc2c1CCCC2	inconclusive: 0.315 µM [activator, full curve]	–
CCc1ccc(CNC(=O)c2cnc3sc(N4CCCCCC4)nn3c2=O)cc1	inconclusive: 0.562 µM [inhibitor, full curve, poor fit]	–
O=C(CCl)Nc1c[nH]c(=O)[nH]c1=O	inconclusive: 35.5 µM [inhibitor, single point]	–
CCn1cc2nc(SCC(=O)Nc3cccc(Cl)c3C)n(Cc3ccc(Cl)cc3)c(=O)c2n1	–	inactive: 1.37% [at 46.1 µM]
Cc1ccc(S(=O)(=O)Nc2ccc(S(=O)(=O)N3CCCC3)cc2)cc1	inconclusive: 14.1 µM [inhibitor, partial curve, poor fit]	–
Oc1ccccc1CN1CCCC(N2CCc3ccccc3C2)C1 (stereo unspecified)	–	inactive: 16.5% [at 46.1 µM]
O=C(Nc1ccccc1)OCC1COC(c2ccccc2)(c2ccccc2)O1 (stereo unspecified)	inconclusive: 11.2 µM [inhibitor, partial curve, poor fit]	–
O=C(NC(=S)Nc1ccc(N2CCOCC2)cc1)c1ccccc1	–	inactive: -2.91%
Cc1c(C(=O)Nc2ccc(Br)cc2)cnn1C	inconclusive: 5.62 µM [activator, single point]	–

2 consecutive entries from above, for reference:
Structure (SMILES)	Potency	activity change, negative = inhibition
CCc1ccc(CNC(=O)c2cnc3sc(N4CCCCCC4)nn3c2=O)cc1	inconclusive: 0.562 µM [inhibitor, full curve, poor fit]	–
O=C(CCl)Nc1c[nH]c(=O)[nH]c1=O	inconclusive: 35.5 µM [inhibitor, single point]	–
